Protein sequences, listed by entry. Tags and fused reporters are not part of them.
UniProt P10275: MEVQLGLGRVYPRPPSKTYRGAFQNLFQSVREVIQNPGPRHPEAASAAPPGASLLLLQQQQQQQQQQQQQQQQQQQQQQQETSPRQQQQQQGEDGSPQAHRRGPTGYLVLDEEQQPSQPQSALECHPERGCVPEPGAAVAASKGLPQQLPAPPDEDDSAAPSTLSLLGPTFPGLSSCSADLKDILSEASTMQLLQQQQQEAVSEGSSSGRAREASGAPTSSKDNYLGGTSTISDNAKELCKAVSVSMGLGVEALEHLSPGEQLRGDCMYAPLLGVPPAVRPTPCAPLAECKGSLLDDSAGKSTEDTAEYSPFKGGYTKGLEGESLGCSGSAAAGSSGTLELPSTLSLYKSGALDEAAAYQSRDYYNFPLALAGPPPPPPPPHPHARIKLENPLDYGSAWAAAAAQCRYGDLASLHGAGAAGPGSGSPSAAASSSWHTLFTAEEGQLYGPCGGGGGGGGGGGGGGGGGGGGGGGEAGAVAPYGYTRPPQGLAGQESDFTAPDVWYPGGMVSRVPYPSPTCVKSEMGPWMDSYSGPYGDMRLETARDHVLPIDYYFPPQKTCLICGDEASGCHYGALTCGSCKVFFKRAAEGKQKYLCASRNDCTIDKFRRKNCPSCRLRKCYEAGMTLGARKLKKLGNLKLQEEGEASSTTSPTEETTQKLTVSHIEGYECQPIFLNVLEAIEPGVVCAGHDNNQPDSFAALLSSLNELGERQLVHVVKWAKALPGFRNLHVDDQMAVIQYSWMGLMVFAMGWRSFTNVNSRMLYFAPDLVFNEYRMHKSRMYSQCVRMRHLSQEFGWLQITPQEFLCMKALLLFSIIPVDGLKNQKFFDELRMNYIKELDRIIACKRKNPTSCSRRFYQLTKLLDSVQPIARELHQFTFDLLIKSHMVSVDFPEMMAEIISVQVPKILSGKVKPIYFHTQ
UniProt P51532: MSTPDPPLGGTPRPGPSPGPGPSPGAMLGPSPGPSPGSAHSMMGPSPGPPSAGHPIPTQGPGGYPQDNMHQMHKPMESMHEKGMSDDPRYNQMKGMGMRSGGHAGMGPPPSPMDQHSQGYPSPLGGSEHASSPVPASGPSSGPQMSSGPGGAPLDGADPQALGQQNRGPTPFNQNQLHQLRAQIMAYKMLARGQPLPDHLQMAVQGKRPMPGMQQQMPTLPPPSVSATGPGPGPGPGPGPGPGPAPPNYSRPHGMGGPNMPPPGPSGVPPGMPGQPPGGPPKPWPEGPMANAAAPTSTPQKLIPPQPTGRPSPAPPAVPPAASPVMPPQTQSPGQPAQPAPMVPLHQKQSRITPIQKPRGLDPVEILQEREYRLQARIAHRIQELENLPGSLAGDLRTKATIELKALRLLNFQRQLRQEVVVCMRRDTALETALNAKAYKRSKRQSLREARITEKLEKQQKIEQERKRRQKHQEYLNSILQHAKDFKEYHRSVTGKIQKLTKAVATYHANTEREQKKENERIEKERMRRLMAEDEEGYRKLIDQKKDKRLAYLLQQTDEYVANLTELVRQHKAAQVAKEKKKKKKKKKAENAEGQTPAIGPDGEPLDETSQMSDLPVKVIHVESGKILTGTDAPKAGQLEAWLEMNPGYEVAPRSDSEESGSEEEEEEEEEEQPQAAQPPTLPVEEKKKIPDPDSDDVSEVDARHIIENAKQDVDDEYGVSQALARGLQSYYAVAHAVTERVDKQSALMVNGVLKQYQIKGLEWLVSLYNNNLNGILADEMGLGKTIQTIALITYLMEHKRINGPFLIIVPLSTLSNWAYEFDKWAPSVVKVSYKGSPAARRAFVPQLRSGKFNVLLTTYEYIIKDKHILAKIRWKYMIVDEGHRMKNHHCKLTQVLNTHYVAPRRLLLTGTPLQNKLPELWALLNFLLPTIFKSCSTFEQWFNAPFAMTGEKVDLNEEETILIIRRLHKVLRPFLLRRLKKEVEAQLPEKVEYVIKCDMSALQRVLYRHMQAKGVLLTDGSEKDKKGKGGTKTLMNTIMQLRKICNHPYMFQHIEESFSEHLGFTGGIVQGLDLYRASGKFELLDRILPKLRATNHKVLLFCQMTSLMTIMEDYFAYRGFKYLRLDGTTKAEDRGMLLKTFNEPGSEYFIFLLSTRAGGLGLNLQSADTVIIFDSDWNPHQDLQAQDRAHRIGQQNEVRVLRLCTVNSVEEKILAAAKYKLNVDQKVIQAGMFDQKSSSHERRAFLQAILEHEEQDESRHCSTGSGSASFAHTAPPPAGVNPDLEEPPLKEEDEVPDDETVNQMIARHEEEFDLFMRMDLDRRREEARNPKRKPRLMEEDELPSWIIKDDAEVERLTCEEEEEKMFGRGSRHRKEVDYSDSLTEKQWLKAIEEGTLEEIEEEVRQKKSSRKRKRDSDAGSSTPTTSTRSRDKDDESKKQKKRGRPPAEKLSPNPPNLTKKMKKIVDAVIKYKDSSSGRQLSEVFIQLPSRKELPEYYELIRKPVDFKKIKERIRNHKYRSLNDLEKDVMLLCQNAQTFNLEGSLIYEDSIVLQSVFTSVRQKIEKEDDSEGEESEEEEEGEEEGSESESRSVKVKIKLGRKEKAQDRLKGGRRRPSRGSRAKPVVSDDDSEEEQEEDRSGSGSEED

In PMC8888634:

Target: T1, Flag-OTUD6A (ovarian tumor deubiquitinase 6A), introduced into VCaP and PC-3 cells (human) (UniProt Q7L8S5)
T1 sequence: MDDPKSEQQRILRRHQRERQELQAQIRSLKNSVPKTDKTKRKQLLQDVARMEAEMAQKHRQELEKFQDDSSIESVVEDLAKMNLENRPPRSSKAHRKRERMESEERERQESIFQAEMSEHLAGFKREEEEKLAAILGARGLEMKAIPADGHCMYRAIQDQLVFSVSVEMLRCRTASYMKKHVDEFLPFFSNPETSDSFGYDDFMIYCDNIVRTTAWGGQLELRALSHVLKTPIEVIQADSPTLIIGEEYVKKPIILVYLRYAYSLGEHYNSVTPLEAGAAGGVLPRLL
Assay: affinity purification with mass spectrometry; Flag-OTUD6A introduced into VCaP and PC-3 cells; Flag-M2 IP; associated proteins analysed by Easy-nLC 1200 and Orbitrap Exploris 480

Row | binding | Substance
1 | binds | AR (androgen receptor), endogenous in prostate cancer cells (from UniProt P10275 1-920)
2 | binds | Brg1, the ATPase subunit of the SWI/SNF chromatin remodeling complex, endogenous in prostate cancer cells (from UniProt P51532 1-1647)

No constants are given. Whether binding was seen depends on the method and setting. Binding seen in cells or lysates may run through a third protein. A yes stands for co-enrichment or nearness to the bait. Other partners may have been found. Where a sequence is shown, tags or fusion partners need not be part of it.
